Laboratory results taken from patent publication US7528140B2, “Substituted pyrrolo[3,2-d]pyrimidines as glycogen synthase kinase (GSK) inhibitors” (Teijin Limited, priority 2002, dated 2009).
Some entries share one result that the patent states for a list of compounds. At least one compound was matched to its structure with a doubt left.

By UniProt entry, the sequences of proteins in these tests, tags left out. Where a name states a change or a piece, a line headed by the entry shows the natural chain unless it says otherwise.
UniProt P49841: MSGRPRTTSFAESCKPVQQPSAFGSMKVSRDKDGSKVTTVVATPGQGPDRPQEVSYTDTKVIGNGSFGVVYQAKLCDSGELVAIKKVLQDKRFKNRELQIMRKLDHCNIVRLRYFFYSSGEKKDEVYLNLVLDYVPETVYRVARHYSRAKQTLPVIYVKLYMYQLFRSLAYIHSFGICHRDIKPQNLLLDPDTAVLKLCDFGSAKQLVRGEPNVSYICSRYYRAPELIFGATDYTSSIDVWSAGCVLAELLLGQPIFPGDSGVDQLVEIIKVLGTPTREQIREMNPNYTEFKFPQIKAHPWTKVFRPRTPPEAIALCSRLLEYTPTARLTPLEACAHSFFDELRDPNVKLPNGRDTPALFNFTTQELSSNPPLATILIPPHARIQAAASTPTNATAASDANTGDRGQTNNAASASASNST

These molecules were tested against recombinant human GSK-3β (Homo sapiens, UniProt P49841) (assay: Measurement of GSK-3 enzyme activity inhibition (32P phosphorylation of phospho-glycogen synthase peptide-2)). Conditions: 20 μM ATP, 20 minutes at room temperature, read-out: GSK-3 enzyme inhibiting activity (IC50).
Assay type: biochemical
Method: Measurement of GSK-3 Enzyme Activity Inhibition
After adding 25 μL of phospho-glycogen synthase peptide-2 substrate solution [6 μM phospho -glycogen synthase peptide-2, 20 μM ATP, 16 mM MOPS buffer (pH 7.0), 0.2 mM EDTA, 20 mM magnesium acetate, 0.1 μCi [γ-^32P]ATP (specific activity: approximately 110 TBq/mmol)]to 5 μL of the test compound using 5% dimethylsulfoxide as the solvent, reaction was initiated by further addition of 20 μL of a GSK-3β enzyme solution [10 mU recombinant human GSK-3β, 20 mM MOPS buffer (pH 7.0), 1 mM EDTA, 0.1% polyoxyethylene lauryl ether (23 Lauryl Ether; Brij 35), 5% glycerol, 0.1% β-mercaptoethanol]. After conducting the reaction for 20 minutes at room temperature, an equivalent volume of a 200 mM phosphoric acid solution was added to quench the reaction, and 90 μL of the reaction product was adsorbed onto a MultiScreen PH plate (Millipore) and rinsed with a 100 mM phosphoric acid solution. After drying the plate, 30 μL of Micro Scint-O (Packard BioScience) was added, and the cpm was measured with a scintillation counter to determine the inhibiting activity. Phospho GS Peptide2 is […]P)-Glu-Asp-Glu-Glu-Glu (SEQ ID NO:1).
In the case of `N#Cc1c(-c2ccccc2)n(CCNC(=O)c2ccncc2)c2c(=O)[nH]cnc12` [2-0034], the IC50 is reported as 1 to 10 µM. `CC(C)Cc1c(C#N)c2nc[nH]c(=O)c2n1CCCOC(C)C` [1-0238] showed an IC50 of 1 to 10 µM. With `Cc1ccoc1-c1c(C#N)c2nc[nH]c(=S)c2n1CCNC(=O)c1ccccc1` [2-0559] the IC50 was under 0.01 µM. With `CC(C)(Oc1ccc(Cl)cc1)C(=O)NCCn1c(-c2ccccc2)c(C#N)c2nc[nH]c(=S)c21` [2-1860] the IC50 was 1 to 10 µM. Work on `N#Cc1c(-c2ccccc2)n(CCCOCc2ccccc2)c2c(=O)[nH]cnc12` [1-1065] yielded an IC50 of 1 to 10 µM. With `N#Cc1ccc(C(=O)NCCCn2c(-c3ccccc3)c(C#N)c3nc[nH]c(=O)c32)cc1` [2-0072] the IC50 was 1 to 10 µM. With `Cc1nccn1-c1c(C#N)c2nc[nH]c(=S)c2n1CCCOC(C)C` [6-0394] the IC50 was 1 to 10 µM. `Cc1cc(S(=O)(=O)c2ccc(Cl)cc2)sc1C(=O)NCCn1c(-c2ccccc2)c(C#N)c2nc[nH]c(=O)c21` [2-0037] showed an IC50 of 1 to 10 µM. `N#Cc1c(-c2ccccc2)n(CCCC(=O)NCCCN2CCOCC2)c2c(=S)[nH]cnc12` [3-0550] was tested, and the IC50 was 1 to 10 µM. With `COC(=O)c1ccc(C(=O)NCCn2c(-c3sccc3C)c(C#N)c3nc[nH]c(=S)c32)cc1` [2-0886] the IC50 was under 0.01 µM. Work on `N#Cc1c(-c2ccc(CO)cc2)[nH]c2c(=O)[nH]cnc12` [1-0074] yielded an IC50 of 1 to 10 µM. `N#Cc1c(-c2ccccc2)n(CCCc2ccccc2)c2c(=S)[nH]cnc12` [1-0321] was tested, and the IC50 was 1 to 10 µM. Molecule `N#Cc1c(-c2ccccc2)n(CCCNC(=O)C2(C#N)CC2)c2c(=S)[nH]cnc12` [2-1853] has an IC50 of 1 to 10 µM. With `CC(C)OCCCn1c(Cc2ccccc2)c(C#N)c2nc[nH]c(=O)c21` [1-0243] the IC50 was 1 to 10 µM. In the case of `N#Cc1c(-c2cccc(OC(F)(F)F)c2)[nH]c2c(=S)[nH]cnc12` [1-0694], the IC50 is reported as 1 to 10 µM. `N#Cc1c(-c2cccs2)[nH]c2c(=O)[nH]cnc12` [1-0086] gave an IC50 of 1 to 10 µM. With `N#Cc1c(C2CC2)n(CCCc2ccccc2)c2c(=S)[nH]cnc12` [1-0317] the IC50 was 1 to 10 µM. For `CC(C)(C)OC(=O)Nc1ccccc1C(=O)NCCn1c(-c2ccccc2)c(C#N)c2nc[nH]c(=S)c21` [2-1074], the IC50 was 1 to 10 µM. Work on `Cc1ccoc1-c1c(C#N)c2nc[nH]c(=S)c2n1CCNC(=O)c1ccc(C(=O)O)cc1` [2-0773] yielded an IC50 of under 0.01 µM. Molecule `N#Cc1c(-c2csc3ccccc23)[nH]c2c(=O)[nH]cnc12` [1-0093] has an IC50 of 1 to 10 µM. `N#Cc1c(-c2cccc3ccccc23)[nH]c2c(=O)[nH]cnc12` [1-0084] gave an IC50 of 1 to 10 µM. `COc1cc(NC(=O)CCn2c(-c3ccccc3)c(C#N)c3nc[nH]c(=S)c32)cc(OC)c1` [3-1822] showed an IC50 of 1 to 10 µM. For `N#Cc1c(-c2cccc([N+](=O)[O-])c2)[nH]c2c(=O)[nH]cnc12` [1-0070], the IC50 was 1 to 10 µM. With `Cc1ccoc1-c1c(C#N)c2nc[nH]c(=S)c2n1CCNC(=O)c1ccccc1[N+](=O)[O-]` [2-1824] the IC50 was under 0.01 µM. `CC(C)N(Cc1ccccc1)C(=O)CCn1c(-c2ccccc2)c(C#N)c2nc[nH]c(=S)c21` [3-1800] showed an IC50 of 1 to 10 µM. `Cn1c(-c2ccccc2)c(C#N)c2nc[nH]c(=O)c21` [1-0100] was tested, and the IC50 was 1 to 10 µM. Molecule `CCOCCCn1c(C)c(C#N)c2nc[nH]c(=O)c21` [1-0236] has an IC50 of 1 to 10 µM. Work on `N#Cc1c(-c2ccccc2)n(CC2CCCO2)c2c(=S)[nH]cnc12` (centres unmarked) [1-0297] yielded an IC50 of 1 to 10 µM. With `COc1ccc(CNCCCn2c(-c3ccccc3)c(C#N)c3nc[nH]c(=S)c32)cc1` [2-1773] the IC50 was 1 to 10 µM. Molecule `Cc1ccsc1-c1c(C#N)c2nc[nH]c(=S)c2n1CCNC(=O)c1cccc(C)c1N` [2-0623] has an IC50 of under 0.01 µM. `N#Cc1c(-c2ccccc2)n(CCCOCc2ccccc2)c2c(=S)[nH]cnc12` [1-1075] gave an IC50 of 1 to 10 µM. For `CN(C)c1ccc(-c2[nH]c3c(=O)[nH]cnc3c2C#N)cc1` [1-0069], the IC50 was 1 to 10 µM. `N#Cc1c(-c2sccc2Cl)n(CCNC(=O)c2ccc(F)cc2)c2c(=S)[nH]cnc12` [2-0696] was tested, and the IC50 was under 0.01 µM. `N#Cc1c(-c2ccccc2)n(CCCOC(=O)c2cccs2)c2c(=O)[nH]cnc12` [2-0531] was tested, and the IC50 was 1 to 10 µM. `N#Cc1c(-c2ccccc2)n(CCCC(=O)NCc2ccc(Cl)cc2)c2c(=S)[nH]cnc12` [3-0591] was tested, and the IC50 was 1 to 10 µM. In the case of `CCCn1c(C)c(C#N)c2nc[nH]c(=S)c21` [1-0105], the IC50 is reported as 1 to 10 µM. Work on `CC(C)OCCCn1c(Cc2ccccc2)c(C#N)c2nc[nH]c(=S)c21` [1-0244] yielded an IC50 of 1 to 10 µM. With `CN1CCC(N(C)C(=O)CCCn2c(-c3ccccc3)c(C#N)c3nc[nH]c(=S)c32)CC1` [3-0544] the IC50 was 1 to 10 µM. With `CC(=O)c1cccc(-c2[nH]c3c(=O)[nH]cnc3c2C#N)c1` [1-0062] the IC50 was 1 to 10 µM. Work on `CC(C)OCCCn1c(CCc2ccccc2)c(C#N)c2nc[nH]c(=S)c21` [1-0246] yielded an IC50 of 1 to 10 µM. `Cc1ccc(-c2noc(CCCn3c(-c4ccccc4)c(C#N)c4nc[nH]c(=S)c43)n2)cc1` [1-0585] was tested, and the IC50 was 1 to 10 µM. Molecule `CC(C)CN(CC(C)C)C(=O)CCn1c(-c2ccccc2)c(C#N)c2nc[nH]c(=S)c21` [3-1785] has an IC50 of 1 to 10 µM. Work on `Cn1cccc1-c1c(C#N)c2nc[nH]c(=S)c2n1CCNC(=O)c1ccccc1` [2-0562] yielded an IC50 of under 0.01 µM. With `Cc1ccccc1-c1c(C#N)c2nc[nH]c(=O)c2n1C` [1-0926] the IC50 was 1 to 10 µM. Molecule `N#Cc1c(-c2ccccc2)n(CCNC(=O)Nc2ccc3ccccc3c2)c2c(=S)[nH]cnc12` [2-1802] has an IC50 of 1 to 10 µM. In the case of `N#Cc1c(-c2ccccc2)n(CCC(=O)Cc2ccccc2)c2c(=S)[nH]cnc12` [5-0016], the IC50 is reported as 1 to 10 µM. `Cc1cccc(C(=O)NCCn2c(-c3sccc3Cl)c(C#N)c3nc[nH]c(=S)c32)c1N` [2-0624] showed an IC50 of under 0.01 µM. `N#Cc1c(C2CC2)n(CCCc2ccccc2)c2c(=O)[nH]cnc12` [1-0324] showed an IC50 of 1 to 10 µM. `Cc1noc(C)c1C(=O)NCCn1c(-c2ccccc2)c(C#N)c2nc[nH]c(=O)c21` [2-0036] showed an IC50 of 1 to 10 µM. With `CC(=O)c1ccc(C(=O)NCCn2c(-c3sccc3Cl)c(C#N)c3nc[nH]c(=S)c32)s1` [2-1929] the IC50 was under 0.01 µM.
